The results in this text go back to PMC6920372.

By UniProt entry, the sequences of proteins in these tests, tags left out.
UniProt Q14457: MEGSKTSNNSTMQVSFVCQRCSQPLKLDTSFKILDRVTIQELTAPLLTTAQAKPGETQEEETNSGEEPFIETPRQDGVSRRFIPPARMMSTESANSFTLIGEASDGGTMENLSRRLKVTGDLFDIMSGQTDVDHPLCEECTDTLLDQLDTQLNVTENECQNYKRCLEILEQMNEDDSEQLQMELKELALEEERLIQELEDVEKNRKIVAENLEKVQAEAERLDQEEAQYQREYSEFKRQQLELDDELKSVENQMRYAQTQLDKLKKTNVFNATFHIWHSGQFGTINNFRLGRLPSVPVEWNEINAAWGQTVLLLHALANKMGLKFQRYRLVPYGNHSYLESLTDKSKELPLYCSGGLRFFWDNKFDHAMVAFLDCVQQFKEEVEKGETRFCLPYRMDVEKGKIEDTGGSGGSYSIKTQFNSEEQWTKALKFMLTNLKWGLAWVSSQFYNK
UniProt O60346: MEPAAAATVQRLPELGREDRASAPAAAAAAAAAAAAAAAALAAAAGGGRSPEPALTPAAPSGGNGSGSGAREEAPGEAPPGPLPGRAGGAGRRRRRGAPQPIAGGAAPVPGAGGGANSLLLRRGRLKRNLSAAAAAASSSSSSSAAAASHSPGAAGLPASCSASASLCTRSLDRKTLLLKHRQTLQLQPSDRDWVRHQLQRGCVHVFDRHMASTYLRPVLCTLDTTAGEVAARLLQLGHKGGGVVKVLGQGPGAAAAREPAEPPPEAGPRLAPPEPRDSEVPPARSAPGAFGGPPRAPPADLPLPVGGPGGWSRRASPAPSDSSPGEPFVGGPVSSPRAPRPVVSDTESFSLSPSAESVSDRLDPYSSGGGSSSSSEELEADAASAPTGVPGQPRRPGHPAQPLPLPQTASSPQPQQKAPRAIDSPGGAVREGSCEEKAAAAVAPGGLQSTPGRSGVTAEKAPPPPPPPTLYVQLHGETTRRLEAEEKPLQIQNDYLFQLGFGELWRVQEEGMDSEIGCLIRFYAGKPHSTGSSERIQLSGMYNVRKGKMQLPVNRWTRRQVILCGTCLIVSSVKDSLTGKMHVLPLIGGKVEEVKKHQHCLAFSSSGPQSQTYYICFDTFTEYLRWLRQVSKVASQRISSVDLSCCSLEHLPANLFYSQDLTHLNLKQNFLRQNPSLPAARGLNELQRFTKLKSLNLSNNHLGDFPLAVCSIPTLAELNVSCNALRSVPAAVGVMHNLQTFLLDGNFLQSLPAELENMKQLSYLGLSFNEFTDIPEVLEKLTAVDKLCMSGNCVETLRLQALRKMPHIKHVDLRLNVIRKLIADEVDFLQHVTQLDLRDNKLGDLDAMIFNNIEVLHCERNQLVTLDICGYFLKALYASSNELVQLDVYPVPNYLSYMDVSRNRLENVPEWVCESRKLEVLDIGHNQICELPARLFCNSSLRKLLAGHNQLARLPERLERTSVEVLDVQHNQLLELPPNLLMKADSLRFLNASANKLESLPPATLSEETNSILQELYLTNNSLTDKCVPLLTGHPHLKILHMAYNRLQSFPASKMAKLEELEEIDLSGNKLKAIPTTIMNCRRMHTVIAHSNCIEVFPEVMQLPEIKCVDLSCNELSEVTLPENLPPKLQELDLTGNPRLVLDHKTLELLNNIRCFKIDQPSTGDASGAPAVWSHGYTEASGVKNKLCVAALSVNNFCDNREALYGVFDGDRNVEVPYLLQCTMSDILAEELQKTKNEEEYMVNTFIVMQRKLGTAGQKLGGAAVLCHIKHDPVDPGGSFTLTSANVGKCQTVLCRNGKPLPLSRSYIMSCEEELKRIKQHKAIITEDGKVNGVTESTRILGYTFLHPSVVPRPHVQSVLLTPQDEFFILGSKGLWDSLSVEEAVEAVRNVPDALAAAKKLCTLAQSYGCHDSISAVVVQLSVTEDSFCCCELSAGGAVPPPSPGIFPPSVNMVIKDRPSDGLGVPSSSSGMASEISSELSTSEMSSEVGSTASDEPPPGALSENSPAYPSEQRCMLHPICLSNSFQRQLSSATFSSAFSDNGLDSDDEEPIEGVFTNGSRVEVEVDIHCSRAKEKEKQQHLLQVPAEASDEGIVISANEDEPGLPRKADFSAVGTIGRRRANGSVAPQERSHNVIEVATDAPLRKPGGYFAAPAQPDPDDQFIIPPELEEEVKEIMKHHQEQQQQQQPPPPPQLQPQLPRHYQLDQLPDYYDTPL
UniProt P31749: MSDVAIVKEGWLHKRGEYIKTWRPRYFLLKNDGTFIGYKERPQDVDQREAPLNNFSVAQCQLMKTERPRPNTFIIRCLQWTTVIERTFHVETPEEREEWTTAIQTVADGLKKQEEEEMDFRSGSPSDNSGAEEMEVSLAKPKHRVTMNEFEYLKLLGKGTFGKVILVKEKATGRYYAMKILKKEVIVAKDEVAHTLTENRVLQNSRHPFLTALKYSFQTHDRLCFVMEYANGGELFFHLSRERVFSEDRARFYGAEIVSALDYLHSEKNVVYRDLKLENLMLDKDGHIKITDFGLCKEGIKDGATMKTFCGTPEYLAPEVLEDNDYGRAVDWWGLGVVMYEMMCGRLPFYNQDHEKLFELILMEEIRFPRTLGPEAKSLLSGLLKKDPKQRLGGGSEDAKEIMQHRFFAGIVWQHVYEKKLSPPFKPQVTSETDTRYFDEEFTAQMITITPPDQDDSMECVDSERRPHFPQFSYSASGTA

Common to all, as to test: co-IP
One test concerns the target T1, FKBP51-Flag (UniProt Q13451).
T1 sequence: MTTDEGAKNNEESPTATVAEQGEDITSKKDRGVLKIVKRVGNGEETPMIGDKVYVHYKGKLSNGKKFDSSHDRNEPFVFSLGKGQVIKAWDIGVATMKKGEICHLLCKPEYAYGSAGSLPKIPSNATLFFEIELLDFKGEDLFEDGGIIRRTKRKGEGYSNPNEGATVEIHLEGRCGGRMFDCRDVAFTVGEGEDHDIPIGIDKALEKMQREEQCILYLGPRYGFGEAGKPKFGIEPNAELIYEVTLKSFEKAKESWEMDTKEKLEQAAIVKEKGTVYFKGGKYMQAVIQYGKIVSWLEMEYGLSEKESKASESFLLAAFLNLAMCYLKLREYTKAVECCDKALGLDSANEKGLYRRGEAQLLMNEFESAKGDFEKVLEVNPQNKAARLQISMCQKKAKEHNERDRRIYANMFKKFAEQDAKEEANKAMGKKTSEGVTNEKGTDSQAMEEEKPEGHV

Test [1] has as its target Beclin1 (BECN1) (human (endogenous in HEK293)) (UniProt Q14457).
The target in test [2] is T2, FK506 binding protein (FKBP)51 (human (endogenous in HEK293)) (UniProt Q13451).
T2 sequence: T1 sequence

No constants are given. Whether binding was seen depends on the method and setting. Binding seen in cells or lysates may run through a third protein. Some binding calls cover weakened binding; strength is not graded here. Where a sequence is shown, tags or fusion partners need not be part of it.

Regarding “PHLPP (from UniProt O60346 1-1717) (enzyme)”, the binding result in the test with FKBP51-Flag is recorded as “binds”.
The same measure, in the same setting: with “AKT1 (from UniProt P31749 1-480) (enzyme)” the entry was “binds”.

B1: FLAG-HA-USP36 (protein, UniProt Q9P275 1-1123)
chain: MPIVDKLKEALKPGRKDSADDGELGKLLASSAKKVLLQKIEFEPASKSFSYQLEALKSKYVLLNPKTEGASRHKSGDDPPARRQGSEHTYESCGDGVPAPQKVLFPTERLSLRWERVFRVGAGLHNLGNTCFLNATIQCLTYTPPLANYLLSKEHARSCHQGSFCMLCVMQNHIVQAFANSGNAIKPVSFIRDLKKIARHFRFGNQEDAHEFLRYTIDAMQKACLNGCAKLDRQTQATTLVHQIFGGYLRSRVKCSVCKSVSDTYDPYLDVALEIRQAANIVRALELFVKADVLSGENAYMCAKCKKKVPASKRFTIHRTSNVLTLSLKRFANFSGGKITKDVGYPEFLNIRPYMSQNNGDPVMYGLYAVLVHSGYSCHAGHYYCYVKASNGQWYQMNDSLVHSSNVKVVLNQQAYVLFYLRIPGSKKSPEGLISRTGSSSLPGRPSVIPDHSKKNIGNGIISSPLTGKRQDSGTMKKPHTTEEIGVPISRNGSTLGLKSQNGCIPPKLPSGSPSPKLSQTPTHMPTILDDPGKKVKKPAPPQHFSPRTAQGLPGTSNSNSSRSGSQRQGSWDSRDVVLSTSPKLLATATANGHGLKGNDESAGLDRRGSSSSSPEHSASSDSTKAPQTPRSGAAHLCDSQETNCSTAGHSKTPPSGADSKTVKLKSPVLSNTTTEPASTMSPPPAKKLALSAKKASTLWRATGNDLRPPPPSPSSDLTHPMKTSHPVVASTWPVHRARAVSPAPQSSSRLQPPFSPHPTLLSSTPKPPGTSEPRSCSSISTALPQVNEDLVSLPHQLPEASEPPQSPSEKRKKTFVGEPQRLGSETRLPQHIREATAAPHGKRKRKKKKRPEDTAASALQEGQTQRQPGSPMYRREGQAQLPAVRRQEDGTQPQVNGQQVGCVTDGHHASSRKRRRKGAEGLGEEGGLHQDPLRHSCSPMGDGDPEAMEESPRKKKKKKRKQETQRAVEEDGHLKCPRSAKPQDAVVPESSSCAPSANGWCPGDRMGLSQAPPVSWNGERESDVVQELLKYSSDKAYGRKVLTWDGKMSAVSQDAIEDSRQARTETVVDDWDEEFDRGKEKKIKKFKREKRRNFNAFQKLQTRRNFWSVTHPAKAASLSYRR
For the molecule B1, the binding entry was “no binding” in test [1] and “binds” in test [2].
